Paper PMC10052374

How the values were obtained:
[1] = target: CsMYC2-MBP (Citrus sinensis (Newhall orange)) (UniProt V4SX11); assay: EMSA; conditions: CsMPK6-GST added (2, 6, 10 ug); EMSA: as in Yue et al. 2019, buffer not given; recombinant protein; protein details: MBP (pMAL-C2X); label: 3' biotin
[2] = test system: CsMYC2A-MBP (Citrus sinensis (Newhall orange)); assay: EMSA; conditions: no difference from CsMYC2; EMSA: as in Yue et al. 2019, buffer not given; recombinant protein; protein details: MBP (pMAL-C2X); label: 3' biotin
[3] = test system: CsMYC2D-MBP (Citrus sinensis (Newhall orange)); assay: EMSA; conditions: no difference from CsMYC2; EMSA: as in Yue et al. 2019, buffer not given; recombinant protein; protein details: MBP (pMAL-C2X); label: 3' biotin
[4] = target: CsMYC2-MBP (Citrus sinensis (Newhall orange)) (UniProt V4SX11); assay: DNA pull-down; conditions: CsMPK6-GST added; DNA pull-down: probe bound to beads in 10 mM Tris-HCl pH 7.5, 1 mM EDTA, 1 M NaCl, 0.1% Tween-20 at RT, then protein 1 h on ice; recombinant protein; protein details: MBP (pMAL-C2X); label: 3' biotin
[5] = test system: CsMYC2A-MBP (Citrus sinensis (Newhall orange)); assay: DNA pull-down; conditions: no difference from CsMYC2; DNA pull-down: probe bound to beads in 10 mM Tris-HCl pH 7.5, 1 mM EDTA, 1 M NaCl, 0.1% Tween-20 at RT, then protein 1 h on ice; recombinant protein; protein details: MBP (pMAL-C2X); label: 3' biotin
[6] = test system: CsMYC2D-MBP (Citrus sinensis (Newhall orange)); assay: DNA pull-down; conditions: no difference from CsMYC2; DNA pull-down: probe bound to beads in 10 mM Tris-HCl pH 7.5, 1 mM EDTA, 1 M NaCl, 0.1% Tween-20 at RT, then protein 1 h on ice; recombinant protein; protein details: MBP (pMAL-C2X); label: 3' biotin

Measured: binding result

GTACCATACAACTGTGGCACCATAGCTGGATC (double strand) [CsCCD4b-probe]
binds more weakly: [1] | [4]
binds: all other assays above

Construct, isoform or probe ends are uncertain for at least one entry. For part of these data: The comparison behind a weaker result is the experiment's own reference, which may not be listed here. For part of these data: At least one verdict was read from the data and is not stated in words by the source.
